This experiment has as its target T1, purified recombinant equine CXC-chemokine receptor 6 (EqCXCR6) protein (horse (Equus caballus)) (UniProt F6XQ88).
T1 sequence: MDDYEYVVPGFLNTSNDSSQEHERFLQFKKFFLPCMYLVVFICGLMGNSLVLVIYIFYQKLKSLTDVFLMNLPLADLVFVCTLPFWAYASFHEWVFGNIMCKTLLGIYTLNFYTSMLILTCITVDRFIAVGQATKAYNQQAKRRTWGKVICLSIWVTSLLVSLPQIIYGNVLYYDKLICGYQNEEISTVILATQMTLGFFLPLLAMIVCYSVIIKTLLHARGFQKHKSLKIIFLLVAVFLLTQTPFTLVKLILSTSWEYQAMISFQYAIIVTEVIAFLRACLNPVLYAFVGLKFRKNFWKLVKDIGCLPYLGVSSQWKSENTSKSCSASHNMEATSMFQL
Kind of experiment: far-Western, overlay or dot blot; Far-WB: 20 μg purified recombinant EqCXCR6 or BSA on SDS-PAGE, PVDF, denatured and renatured with Gn-HCl, incubated with purified recombinant EqCXCL16S or EqCXCL16R (5 μg/ml), detected with Rb α-EqCXCL16 Ab; both purified.

These are yes or no findings as the source states them, for the method shown. A result given as binding can be weak or reduced; the word gives no strength.

Regarding “purified recombinant EqCXCL16R protein produced in E. coli (horse (Equus caballus))”, the binding result is “binds”. For the substance “purified recombinant EqCXCL16S protein produced in E. coli (horse (Equus caballus))”, the binding entry is listed as “binds”.

(Values after PMC5145142.)
